Reference: patent US20090022711A1
These are yes or no findings as the source states them, for the method shown. Binding seen in cells or lysates may run through a third protein. Some binding calls cover weakened binding; strength is not graded here.

Molecular target: T1, endogenous Bit1 of HeLa cells (human) (UniProt Q9Y3E5)
T1 sequence: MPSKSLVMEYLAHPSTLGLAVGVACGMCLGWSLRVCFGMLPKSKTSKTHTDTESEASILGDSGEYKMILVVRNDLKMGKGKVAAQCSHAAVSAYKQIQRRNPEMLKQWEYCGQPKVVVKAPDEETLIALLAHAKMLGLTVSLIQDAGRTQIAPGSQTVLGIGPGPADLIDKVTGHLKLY
Assay: co-immunoprecipitation of endogenous proteins from HeLa cells kept in suspension: IP anti-Bit1, IB anti-AES [panel C]

B1: endogenous AES of HeLa cells (protein)
chain: MMFPQSRHSGSSHLPQQLKFTTSDSCDRIKDEFQLLQAQYHSLKLECDKLASEKSEMQRHYVMYYEMSYGLNIEMHKQAEIVKRLNGICAQVLPYLSQEHQQQVLGAIERAKQVTAPELNSIIRQQLQAHQLSQLQALALPLTPLPVGLQPPSLPAVSAGTGLLSLSALGSQAHLSKEDKNGHDGDTHQEDDGEKSD
In the case of B1, the binding is reported as “binds”.
